Measurements reported in PubChem BioAssay AID1259405 (NCATS, 2018)
In all, the deposit lists about 50,000 reagents; shown is a part drawn at random. About 4,000 of all reagents (8%) were called active. 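Mouse siRNA library applied to hamster cells; one well for each siRNA.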 Reagents against one gene are numbered here.

Screen: 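Mouse-designed siRNAs used to find CHO productivity engineering targets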 (primary screen)
System: Chinese hamster CHO-K1 ovary cells with stable secreted eGFP expression
Reagent: single siRNA against mouse genes, 0.8 pmol siRNA per well (2 µl of 400 nM stock)
Duration: 3 days
Measured: 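Per-well intracellular GFP measured by laser scanning cytometry, plus viability from ATP luminescence, each relative to plate median of non-targeting control wells, in %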
Scale: GFP, % of control: higher = more GFP per well, higher productivity; viability (ATP), % of control: higher = more viable cells (more ATP)
Rule for the call: 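Called active when intracellular GFP, relative to negative control, is at or above 120%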

target gene	reagent	GFP, % of control	viability (ATP), % of control	Outcome
Kcnmb2	1	60.2	97	inactive
Kcnmb2	2	87.2	79.9	inactive
Kcnmb2	3	75.5	27.9	inactive
Nckap1	1	110	95	inactive
Nckap1	2	74.3	93.1	inactive
Nckap1	3	73.8	57.4	inactive
Cd59a	1	54.7	51.1	inactive
Cd59a	2	43.5	81	inactive
Cd59a	3	60.6	53.4	inactive
Stxbp5l	1	67.7	51	inactive
Stxbp5l	2	76.9	72	inactive
Stxbp5l	3	83.5	68.3	inactive
Pcyt2	1	102	95	inactive
Pcyt2	2	144	100	active
Pcyt2	3	88	113	inactive
Ica1l	1	83.6	81.1	inactive
Ica1l	2	91.5	75.9	inactive
Ica1l	3	50.9	90	inactive
Or7a39	1	70.8	67.3	inactive
Or7a39	2	50.3	63	inactive
Or7a39	3	58.1	85.7	inactive
Commd5	1	50.5	78.8	inactive
Commd5	2	69.5	75.4	inactive
Commd5	3	93.1	95.6	inactive
Mmp20	1	108	114	inactive
Mmp20	2	71.8	56.2	inactive
Nme4	1	109	96.7	inactive
Rsl1	1	63	60.7	inactive
Rsl1	2	75.1	97.5	inactive
Rsl1	3	49.2	57.7	inactive
Mip	1	65.6	88.1	inactive
Mip	2	53.2	72.4	inactive
Mip	3	84.2	75.8	inactive
Or1j14	1	68	63.8	inactive
Or1j14	2	52.3	45.5	inactive
Or1j14	3	48	57.7	inactive
Zfp622	1	62.2	58.7	inactive
Zfp622	2	79.5	45.4	inactive
Zfp622	3	50.6	62.8	inactive
Ints6l	1	45.7	26.6	inactive
Ints6l	2	91.3	104	inactive
Ints6l	3	66.2	78.5	inactive
Zfand2a	1	69.8	67.2	inactive
Zfand2a	2	79.4	98.1	inactive
Zfand2a	3	36.9	49.2	inactive
Tsc22d3	1	75.1	47.6	inactive
Tsc22d3	2	54.5	55.8	inactive
Tsc22d3	3	70.4	85.7	inactive
Tmem41b	1	62	89.3	inactive
Tmem41b	2	84	77.2	inactive
Tmem41b	3	73.2	85.6	inactive
Elp1	1	70.8	93.1	inactive
Elp1	2	73.9	65.1	inactive
Gm1968	1	60.3	67	inactive
Gm1968	2	81.6	98.9	inactive
Gm1968	3	93.3	77.2	inactive
Gp1ba	1	117	98.9	inactive
Gp1ba	2	128	73.6	active
Gp1ba	3	100	70.2	inactive
Mllt10	1	96.3	80.6	inactive
Mllt10	2	74.9	86.2	inactive
Mllt10	3	38.1	39.8	inactive
Ss18l1	1	102	97.3	inactive
Ss18l1	2	112	101	inactive
Mrpl30	1	102	87.2	inactive
Mrpl30	2	87.4	81.7	inactive
Mrpl30	3	92.3	74.8	inactive
Mgst2	1	109	79.7	inactive
Mgst2	2	73.5	77.7	inactive
Mgst2	3	115	74.3	inactive
Gadd45b	1	57.6	98.4	inactive
Gadd45b	2	50.2	75	inactive
Gadd45b	3	81.2	94.4	inactive
Extl1	1	57.4	52.1	inactive
Extl1	2	204	121	active
Extl1	3	98.4	105	inactive
Or8b43	1	86.6	68	inactive
Or8b43	2	81.7	73	inactive
Or8b43	3	72.3	131	inactive
Fzd7	1	51.9	95.9	inactive
Fzd7	2	89.5	83.3	inactive
Timm10	1	80.6	107	inactive
Timm10	2	54.5	63.9	inactive
Timm10	3	51.5	62.4	inactive

Copied from the entries so far, 11 entries:
target gene	reagent	GFP, % of control	viability (ATP), % of control	Outcome
Nckap1	3	73.8	57.4	inactive
Cd59a	1	54.7	51.1	inactive
Cd59a	2	43.5	81	inactive
Cd59a	3	60.6	53.4	inactive
Stxbp5l	1	67.7	51	inactive
Stxbp5l	2	76.9	72	inactive
Stxbp5l	3	83.5	68.3	inactive
Pcyt2	1	102	95	inactive
Pcyt2	2	144	100	active
Pcyt2	3	88	113	inactive
Ica1l	1	83.6	81.1	inactive
